# In the supplement of paper PMC8728848:
# The list shows a part of the results.
# Columns and labels:
# Experiment in all cases: glycan array binding signal (z-score within array); higher = stronger binding
# Details in all cases: glycan notation: IUPAC condensed, linker removed
# [1] = molecular target: Gal(b1-3)GlcNAc(b1-2)Man(a1-3)[Gal(b1-3)GlcNAc(b1-2)Man(a1-6)]Man(b1-4)GlcNAc(b1-4)GlcNAc
# Method in brief: (§1)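 Glycan array binding is given as a within-array Z-score, which can be read as non-binding when negative. The arrays, 3228 of them, came from the Consortium for Functional Glycomics database and were retained only where the protein sequence was available. Z-scores were averaged across arrays of the same protein sequence at different concentrations or buffers and across linkers.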
# [2] = molecular target: Gal(b1-3)GlcNAc(b1-2)Man(a1-3)[Gal(b1-3)GlcNAc(b1-2)Man(a1-6)]Man(b1-4)GlcNAc(b1-4)[Fuc(a1-6)]GlcNAc
# Method in brief: as §1
# [3] = molecular target: Gal(b1-3)GlcNAc(b1-2)Man(a1-3)[GlcNAc(b1-4)][Gal(b1-3)GlcNAc(b1-2)Man(a1-6)]Man(b1-4)GlcNAc(b1-4)GlcNAc
# Method in brief: as §1
# [4] = molecular target: Gal(b1-3)GlcNAc(b1-2)[Gal(b1-3)GlcNAc(b1-6)]Man(a1-6)[Gal(b1-3)GlcNAc(b1-2)Man(a1-3)]Man(b1-4)GlcNAc(b1-4)GlcNAc
# Method in brief: as §1
# [5] = molecular target: Gal(b1-3)GlcNAc(b1-3)Gal(b1-3)GlcNAc
# Method in brief: as §1
# [6] = molecular target: Gal(b1-3)GlcNAc(b1-3)Gal(b1-4)Glc
# Method in brief: as §1
# [7] = molecular target: Gal(b1-3)GlcNAc(b1-3)Gal(b1-4)GlcNAc
# Method in brief: as §1
# [8] = molecular target: Gal(b1-3)GlcNAc(b1-3)Gal(b1-4)GlcNAc(b1-2)Man(a1-3)[Gal(b1-3)GlcNAc(b1-3)Gal(b1-4)GlcNAc(b1-2)Man(a1-6)]Man(b1-4)GlcNAc(b1-4)GlcNAc
# Method in brief: as §1
# [9] = molecular target: Gal(b1-3)GlcNAc(b1-3)Gal(b1-4)GlcNAc(b1-2)[Gal(b1-3)GlcNAc(b1-3)Gal(b1-4)GlcNAc(b1-6)]Man(a1-6)[Gal(b1-3)GlcNAc(b1-3)Gal(b1-4)GlcNAc(b1-2)Man(a1-3)]Man(b1-4)GlcNAc(b1-4)[Fuc(a1-6)]GlcNAc
# Method in brief: as §1
# [10] = molecular target: Gal(b1-3)GlcNAc(b1-3)Gal(b1-4)GlcNAc(b1-3)Gal(b1-4)GlcNAc(b1-2)[Gal(b1-3)GlcNAc(b1-3)Gal(b1-4)GlcNAc(b1-3)Gal(b1-4)GlcNAc(b1-6)]Man(a1-6)[Gal(b1-3)GlcNAc(b1-3)Gal(b1-4)GlcNAc(b1-3)Gal(b1-4)GlcNAc(b1-2)Man(a1-3)]Man(b1-4)GlcNAc(b1-4)[Fuc(a1-6)]GlcNAc
# Method in brief: as §1
# [11] = molecular target: Gal(b1-3)GlcNAc(b1-3)Gal(b1-4)GlcNAc(b1-6)[Gal(b1-3)GlcNAc(b1-3)]Gal(b1-4)Glc
# Method in brief: as §1
# [12] = molecular target: Gal(b1-3)GlcNAc(b1-3)Gal(b1-4)[Fuc(a1-3)]GlcNAc
# Method in brief: as §1
# [13] = molecular target: Gal(b1-3)GlcNAc(b1-3)Gal(b1-4)[Fuc(a1-3)]GlcNAc(b1-6)[Gal(b1-3)GlcNAc(b1-3)]Gal(b1-4)Glc
# Method in brief: as §1
# [14] = molecular target: Gal(b1-3)GlcNAc(b1-3)GalNAc
# Method in brief: as §1
# [15] = molecular target: Gal(b1-3)GlcNAc(b1-6)Gal(b1-4)GlcNAc
# Method in brief: as §1
# [16] = molecular target: Gal(b1-3)GlcNAc(b1-6)GalNAc
# Method in brief: as §1
# [17] = molecular target: Gal(b1-3)GlcNAc(b1-6)[Gal(b1-3)]GalNAc
# Method in brief: as §1
# Gal(b1-3)GlcNAc6S = molecular target: Gal(b1-3)GlcNAc6S
# Method in brief: as §1
# [18] = molecular target: Gal(b1-3)[Fuc(a1-4)]GlcNAc
# Method in brief: as §1
# [19] = molecular target: Gal(b1-3)[Fuc(a1-4)]GlcNAc(b1-2)Man
# Method in brief: as §1
# [20] = molecular target: Gal(b1-3)[Fuc(a1-4)]GlcNAc(b1-2)Man(a1-3)[Gal(b1-3)[Fuc(a1-4)]GlcNAc(b1-2)Man(a1-6)]Man(b1-4)GlcNAc(b1-4)[Fuc(a1-6)]GlcNAc
# Method in brief: as §1
# [21] = molecular target: Gal(b1-3)[Fuc(a1-4)]GlcNAc(b1-3)Gal(b1-3)[Fuc(a1-4)]GlcNAc
# Method in brief: as §1
# [22] = molecular target: Gal(b1-3)[Fuc(a1-4)]GlcNAc(b1-3)Gal(b1-4)[Fuc(a1-3)]GlcNAc
# Method in brief: as §1
# [23] = molecular target: Gal(b1-3)[Fuc(a1-4)]GlcNAc(b1-6)GalNAc
# Method in brief: as §1
# [24] = molecular target: Gal(b1-3)[GlcNAc(b1-6)]GalNAc
# Method in brief: as §1
# [25] = molecular target: Gal(b1-3)[Neu5Ac(a2-6)]GalNAc
# Method in brief: as §1
# [26] = molecular target: Gal(b1-3)[Neu5Ac(a2-6)]GlcNAc(b1-4)Gal(b1-4)Glc
# Method in brief: as §1
# [27] = molecular target: Gal(b1-3)[Neu5Ac(b2-6)]GalNAc
# Method in brief: as §1
# Gal(b1-4)Gal = molecular target: Gal(b1-4)Gal
# Method in brief: as §1
# [28] = molecular target: Gal(b1-4)GalNAc(a1-3)[Fuc(a1-2)]Gal(b1-4)GlcNAc
# Method in brief: as §1
binder,measurement,setting,value
"CcfD (Bacteroides fragilis), Q5L9G4 (protein) MKKQNSIYTLLIALLCFVSSCDYLGVSDQLAGGLQNTEQVFDNVSYTKRWYANVFAGIPDYSGINSVNVGAFKNPWTGMCDELVVGYGNSSKYNNSDRNAANMGFHRYGDCYKYIRQANIFLQKAHPIMTTGTQGDQLLEDELTQMKANVRFMRAFYHYLLFEQYGPIILVKDKIYNATEDQDVPRNTVDEVIEYIDSELTAVASELTQEPIFEDKDYRAWPTKGVALAVRAKLWLYAASPLLNGGYREALSVTNPDGTRLFPDYDAGKWEKALAACKDFIDYAEAGRYELYKEYKDDNGAVIDPDKSVYNLFQKYTHEIIWATANNDWGGMNGDAFDRRIAPRCEKNGLGSTGVTQELVDAFYMKDGFPVSATAYLPQSTLYQEEGYGTYKDQNDNFSKKYTNVTVSNRYLNREPRFYNTVFFNGRQWPVSCNQVLFYNGGNSGVQEGQATLTGYMLFKRFNRSVSLTNPGVASQFRPSIIFRLADFYLMYAEAANEVNPNDARVLKYLNLVRERAGLPDIETLNPAIRGNQELQRAAIQRERQIELATEGQRYFDVRRWMIADKNGEGRQNGYVHGMNVRGESNDKEDFNRIVEASQIVFNRKMYLYPMPDSEMRKTKNLVQNPGW",glycan array binding signal (z-score),[1],-0.686
same,glycan array binding signal (z-score),[2],-0.365
same,glycan array binding signal (z-score),[3],0.082
same,glycan array binding signal (z-score),[4],-0.292
same,glycan array binding signal (z-score),[5],1.94
same,glycan array binding signal (z-score),[6],-0.713
same,glycan array binding signal (z-score),[7],-1.11
same,glycan array binding signal (z-score),[8],-0.036
same,glycan array binding signal (z-score),[9],-0.516
same,glycan array binding signal (z-score),[10],0.351
same,glycan array binding signal (z-score),[11],-0.056
same,glycan array binding signal (z-score),[12],-0.785
same,glycan array binding signal (z-score),[13],-0.719
same,glycan array binding signal (z-score),[14],-0.942
same,glycan array binding signal (z-score),[15],0.03
same,glycan array binding signal (z-score),[16],2.12
same,glycan array binding signal (z-score),[17],0.115
same,glycan array binding signal (z-score),Gal(b1-3)GlcNAc6S,-1.02
same,glycan array binding signal (z-score),[18],0.008
same,glycan array binding signal (z-score),[19],-1.36
same,glycan array binding signal (z-score),[20],-0.535
same,glycan array binding signal (z-score),[21],-0.765
same,glycan array binding signal (z-score),[22],2.86
same,glycan array binding signal (z-score),[23],-0.036
same,glycan array binding signal (z-score),[24],-0.41
same,glycan array binding signal (z-score),[25],0.561
same,glycan array binding signal (z-score),[26],0.607
same,glycan array binding signal (z-score),[27],-0.982
same,glycan array binding signal (z-score),Gal(b1-4)Gal,-0.076
same,glycan array binding signal (z-score),[28],-0.069

# At a glance, part of the list above:
binder,measurement,setting,value
"CcfD (Bacteroides fragilis), Q5L9G4 (protein) MKKQNSIYTLLIALLCFVSSCDYLGVSDQLAGGLQNTEQVFDNVSYTKRWYANVFAGIPDYSGINSVNVGAFKNPWTGMCDELVVGYGNSSKYNNSDRNAANMGFHRYGDCYKYIRQANIFLQKAHPIMTTGTQGDQLLEDELTQMKANVRFMRAFYHYLLFEQYGPIILVKDKIYNATEDQDVPRNTVDEVIEYIDSELTAVASELTQEPIFEDKDYRAWPTKGVALAVRAKLWLYAASPLLNGGYREALSVTNPDGTRLFPDYDAGKWEKALAACKDFIDYAEAGRYELYKEYKDDNGAVIDPDKSVYNLFQKYTHEIIWATANNDWGGMNGDAFDRRIAPRCEKNGLGSTGVTQELVDAFYMKDGFPVSATAYLPQSTLYQEEGYGTYKDQNDNFSKKYTNVTVSNRYLNREPRFYNTVFFNGRQWPVSCNQVLFYNGGNSGVQEGQATLTGYMLFKRFNRSVSLTNPGVASQFRPSIIFRLADFYLMYAEAANEVNPNDARVLKYLNLVRERAGLPDIETLNPAIRGNQELQRAAIQRERQIELATEGQRYFDVRRWMIADKNGEGRQNGYVHGMNVRGESNDKEDFNRIVEASQIVFNRKMYLYPMPDSEMRKTKNLVQNPGW",glycan array binding signal (z-score),[17],0.115
same,glycan array binding signal (z-score),Gal(b1-3)GlcNAc6S,-1.02
